Source: patent US20220339156A1, “COMPOSITIONS AND METHODS FOR TREATMENT OF DISORDERS ASSOCIATED WITH CLEC16A DYSFUNCTION OR LOSS” (THE CHILDREN'S HOSPITAL OF PHILADELPHIA, priority 2019, published 2022)
Like-named read-outs stand apart in the source and are kept apart here. At least one compound was matched to its structure with a doubt left.

Test system: UBC-Cre-Clec16aloxP KO mice
Test: Treatment of inducible Clec16a KO mice: fat/weight loss, lipodystrophic phenotype, survival

Compound: CO[C@H]1C[C@@H]2CC[C@@H](C)[C@@](O)(O2)C(=O)C(=O)N2CCCC[C@H]2C(=O)O[C@H]([C@H](C)C[C@@H]2CC[C@@H](O)[C@H](OC)C2)CC(=O)[C@H](C)/C=C(\C)[C@@H](O)[C@@H](OC)C(=O)[C@H](C)C[C@H](C)/C=C/C=C/C=C/1C [rapamycin]
- survival: improved
- survival (listed as Rapamycin): improves survival
